# Measured values taken from the supplement of paper PMC7858590.
# ± gives the standard deviation of the averaged measurements. Whole data set: some 3,800 compounds, median “cell shape (eccentricity) Z-score vs DMSO control” near 1.1, cut for the lowest 2% near -4.7. The list shows a part of the results.
# Test system: human monocyte-derived macrophages (M0)
# Experiment: cell shape (eccentricity) Z-score vs DMSO control; higher = more elongated, M2-like morphology
# Conditions: 20 µM; 24 h; macrophage state: M0 (M-CSF)
row,Compound,cell shape (Z-score)
1,CC[C@@H](C(=O)[C@@H](C)[C@@H](O)[C@H](C)[C@@H]1O[C@@H]([C@@H](CC)C(=O)O)CC[C@@H]1C)[C@H]1O[C@]2(C=C[C@@H](O)[C@]3(CC[C@@](C)(C4CC[C@](O)(CC)[C@H](C)O4)O3)O2)[C@H](C)C[C@@H]1C (some centres not stated),-1.21
2,CC(C(=O)OC1CC2CCC(C1)N2C)c1ccc(Br)cc1 (configuration not stated),3.63
3,N#Cc1ccc(N2CCN(C(=O)COc3ccc4[nH]cc(CCN)c4c3)CC2)cc1,-2.51
4,c1ccc(CC(c2ccccc2)N2CCCCC2)cc1 (configuration not stated),2.82
5,COC1CC(OC2CCC3(C)C(CCC4(O)C3CC(OC(=O)c3ccccc3)C3(C)C(O)(C(C)=O)CCC43O)C2)OC(C)C1OC1CC(OC)C(OC2OC(C)C(O)C(OC)C2O)C(C)O1 (configuration not stated),-0.302 ± 2.2
6,CC1=NN=C(c2ccc(N)cc2)c2cc3c(cc2C1)OCO3,2.11
7,NCCc1cccc(O)c1,-0.332
8,O=c1cccc2n1C[C@H]1CNCC2C1,-1.35
9,CC(=O)O[C@@H](c1nc2ccccc2c(=O)n1[C@@H]1C[C@@]2(OC1=O)c1ccccc1N1C(=O)[C@H](C)N(O)[C@@H]12)C(C)C,2.14
10,CC1(C)C2CC(=O)[C@]3(C)C(CC[C@@]4(C)[C@H](c5ccoc5)OC(=O)[C@H]5O[C@]543)[C@@]2(C)C(=O)C[C@H]1O (some centres not stated),2.13
11,CC(N)Cc1c[nH]c2ccc(OCc3cccs3)cc12 (configuration not stated),0.161
12,C[C@H]1OC(O[C@H]2[C@@H](O)CC(O[C@H]3[C@@H](O)C[C@H](O[C@H]4CC[C@]5(C)C6CC[C@]7(C)[C@@H](C8=CC(=O)OC8)[C@@H](O)C[C@]7(O)[C@@H]6CC[C@@H]5C4)O[C@@H]3C)O[C@@H]2C)C[C@H](O)C1O (some centres not stated),1.14
13,COC[C@@]1(CO)C(=O)[C@H]2CC[N@@]1CC2,1.98
14,CCCCc1ccc(C(=O)O)nc1,-2.2
15,c1ccc2sc(C3(N4CCCCC4)CCCCC3)cc2c1,0.124
16,CC(C)=CC1C(C(=O)OCc2cccc(Oc3ccccc3)c2)C1(C)C (configuration not stated),3.73
17,C[C@]12CC[C@H](O)C[C@H]1CC[C@@H]1[C@@H]2CC[C@]2(C)[C@@H](c3ccc(=O)oc3)CC[C@]12O,0.742
18,COc1ccc(C(CN(C)C)C2(O)CCCCC2)cc1 (configuration not stated),2.9
19,Cc1cccc(C(C)c2cnc[nH]2)c1C (configuration not stated),2.03
20,COc1ccc2c3c([nH]c2c1)[C@H](CC(C)C)N1C(=O)[C@H](CCC(=O)OC(C)(C)C)NC(=O)[C@@H]1C3,9.45
21,CN1CCN(C(=O)OC2c3nccnc3C(=O)N2c2ccc(Cl)cn2)CC1 (configuration not stated),0.709
22,CCC(C)/C=C(C)/C=C/C1=CC2=C(Cl)C(=O)C(C)(OC(C)=O)C(=O)C2=CO1 (configuration not stated),1.12

# An excerpt from above in order of formula weight, rising.
row,Compound,cell shape (Z-score)
7,NCCc1cccc(O)c1,-0.332
13,COC[C@@]1(CO)C(=O)[C@H]2CC[N@@]1CC2,1.98
18,COc1ccc(C(CN(C)C)C2(O)CCCCC2)cc1 (configuration not stated),2.9
